Assay results published in paper PMC3547912.
Results are given in words; binding and its absence hold for the method and conditions named. Binding seen in cells or lysates may run through a third protein. Some binding calls cover weakened binding; strength is not graded here. Where a sequence is shown, tags or fusion partners need not be part of it.

Assays:
[1] = target: T1, Blt1-3Flag (S. pombe) (UniProt O74338); assay: co-IP; reciprocal co-IPs from whole cell extracts (0.5-4 mg) of asynchronous S. pombe, protein-A Dynabeads with anti-3PK, anti-Flag or anti-GFP, 2 h at 4°C; wild-type cells (the Nod1-Gef2 pair also in blt1Δ cells)
T1 sequence: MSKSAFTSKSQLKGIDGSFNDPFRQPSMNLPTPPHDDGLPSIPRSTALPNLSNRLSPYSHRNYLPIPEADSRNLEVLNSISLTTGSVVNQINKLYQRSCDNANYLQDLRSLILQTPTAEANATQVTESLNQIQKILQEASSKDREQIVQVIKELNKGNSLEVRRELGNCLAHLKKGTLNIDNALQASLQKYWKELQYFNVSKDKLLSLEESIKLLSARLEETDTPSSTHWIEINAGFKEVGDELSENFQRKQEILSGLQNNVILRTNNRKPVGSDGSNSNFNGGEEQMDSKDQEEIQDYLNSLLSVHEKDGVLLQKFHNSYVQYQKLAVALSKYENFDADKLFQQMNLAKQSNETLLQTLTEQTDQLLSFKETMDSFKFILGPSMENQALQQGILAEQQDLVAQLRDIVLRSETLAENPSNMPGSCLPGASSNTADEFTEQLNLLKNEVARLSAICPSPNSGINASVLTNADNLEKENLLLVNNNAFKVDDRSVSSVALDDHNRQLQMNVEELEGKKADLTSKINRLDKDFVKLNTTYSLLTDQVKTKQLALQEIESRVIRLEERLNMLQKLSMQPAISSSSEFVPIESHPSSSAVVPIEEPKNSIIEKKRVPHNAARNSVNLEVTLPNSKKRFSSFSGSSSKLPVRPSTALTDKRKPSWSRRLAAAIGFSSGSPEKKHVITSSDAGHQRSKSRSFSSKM

[2] = target: T1, Blt1-3Flag (S. pombe); assay: co-IP; as a1, whole cell extracts of nod1Δ cells; increasing amounts of extract loaded (1x, 2x, 4x)

B1: Gef2-3GFP (protein, UniProt Q09733 1-1101)
chain: MDVGTMGSRAELLAISIQFGGLWVFRDLLQMNPLFEQDHVFCTFNHPNMGLVLISFAKVDGHILAAYALSKLGPDTFSICYPFSSKLDAFAQTLDLEWQIASMHKEAAACVYEFLCVESVCLHTGENWRESVIEPEYASYIFDTINVFQSSSLTRELYSLGEPNGVREFVVDAIFDIKVDNSWWEDPSNSYWKTVIGSREMFEDSRKKTSSPSPSFASSKDAGTIPAIQKKKSLLIEMMETESTYVERLRHLVNDYALPLRDLAKSSKKLLGLYELNTLFPPCLNKLIQLNSAFLDEFEAIMSDLNFEDIDEKKFEEIDLRLACCFESHFFAFSQHYPRYLEQSNDFGNVLKMASKIPKFVEFHDQVKLNANMNVGLSQLIMEPVQRIPRYSLFLDQIILLTQEGECQHTYVRSVEIIKNIAEMPTVDAEERSRIFAGLQHIIPDLAPNMISNSRNFIDCIDVTREFLKNGQLHLIPYTLILFNDRICLVQRRSKSSIASTILDLRKQNPRNSYSKEKRAQYIGSNMNEAVELTRSMVEENTIFLISKYASSPSFFNEYPILKFRCDFENVRTMDRFYQSFQKALSMNKSQPSCLSFSKLNDFVVFFNNYSRFEYEKESKRSDIVCICTNDANVDKHKFLQDGNIVITFFQQDEDFHLSFDSWLGVSLPTEAVIAKEDLREACLNYLINIKRLLLCPFSNRNFSSLDLYSNLIQHLLSANSSPRKSRLSFGGRPGSPSKISLSLNRFYNQGGLSKSCATLPSQMYNLDHNNISQKSLKFNTHNTSKASAEKTVEHLEAFKGGFKYHTDLKNLLYPLSEKEKIEGDELYDNILKETFNEELLSHYPPNIIYATFQKYLSSFINRKFGVLLSSSFIQQLNTVENLNLSFNSTDAVYHLKKILQDLPESSLKILENIFSIASDLLLRLPLKDQCDFVTKQLAIALAPSMFGSNAVELVYYLAYHSDRIFGTVEELPTPVSPANSNNDKQLDESKFQAIAMKEMPERHPKEILPGQIEREAYEDLRRKYHLTLARLAQMTRLNEDSKKSIPLLYDRFNHDLKLIKQSVQASLIRKQCELDTAKWTLEEYESKLNAKEGCQTNIFI
- binding [1]: binds
- binding [2]: no binding (condition: in nod1Δ cells)
